One molecule from article PMC4494927, “Discovery of a small molecule targeting SET-PP2A interaction to overcome BCR-ABLT315I mutation of chronic myeloid leukemia” (Oncotarget, 2015) can be followed below.

In the experiment the test system is K562 cells. In words: Cytotoxicity assay (CellTiter-Glo). The format is cell-based. The note with it: Homo sapiens, 72 h, cell viability. The method, then: Twenty types of tumor cell lines were seeded at 4000 cells per well in 96-well plates. […] Cell viability was measured with the CellTiter-Glo Luminescent Cell Viability Assay (Promega) according to the manufacturer's instructions. Luminescence was measured using an EnVision Multilabel Plate Reader (Perkin-Elmer). The cytotoxicity of TGI1002 was expressed as the percentage of luminescence relative to that of untreated cells.
Background: Cellular ATP, detected with luciferase, serves as a proxy for viable cell number.

In general, IC50 refers to the concentration that gives 50% inhibition. Low values mean higher potency, high ones lower potency.

Regarding `Cc1ccc(NC(=O)c2ccc(CN3CCN(C)CC3)cc2)cc1Nc1nccc(-c2cccnc2)n1` [imatinib, reference compound], the IC50 is 310 ± 10 nM.
